Measured values from publication PMC7925793.
Results are given in words; binding and its absence hold for the method and conditions named. In cells and extracts the contact can be indirect. Some results given as binding are weak or reduced against the parent protein; the word gives no strength.

The chains behind the UniProt entries cited, without tags or fusion partners.
UniProt Q9WV60: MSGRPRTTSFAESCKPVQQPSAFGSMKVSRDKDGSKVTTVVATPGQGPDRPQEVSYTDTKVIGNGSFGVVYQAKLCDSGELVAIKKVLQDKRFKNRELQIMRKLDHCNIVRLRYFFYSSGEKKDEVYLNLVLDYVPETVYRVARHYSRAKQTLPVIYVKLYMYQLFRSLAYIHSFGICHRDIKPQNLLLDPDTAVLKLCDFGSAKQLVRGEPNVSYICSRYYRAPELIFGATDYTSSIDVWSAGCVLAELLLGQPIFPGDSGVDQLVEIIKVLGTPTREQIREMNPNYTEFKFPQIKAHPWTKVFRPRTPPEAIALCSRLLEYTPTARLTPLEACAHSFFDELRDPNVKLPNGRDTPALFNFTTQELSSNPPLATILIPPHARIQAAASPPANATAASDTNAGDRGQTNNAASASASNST
UniProt P70336: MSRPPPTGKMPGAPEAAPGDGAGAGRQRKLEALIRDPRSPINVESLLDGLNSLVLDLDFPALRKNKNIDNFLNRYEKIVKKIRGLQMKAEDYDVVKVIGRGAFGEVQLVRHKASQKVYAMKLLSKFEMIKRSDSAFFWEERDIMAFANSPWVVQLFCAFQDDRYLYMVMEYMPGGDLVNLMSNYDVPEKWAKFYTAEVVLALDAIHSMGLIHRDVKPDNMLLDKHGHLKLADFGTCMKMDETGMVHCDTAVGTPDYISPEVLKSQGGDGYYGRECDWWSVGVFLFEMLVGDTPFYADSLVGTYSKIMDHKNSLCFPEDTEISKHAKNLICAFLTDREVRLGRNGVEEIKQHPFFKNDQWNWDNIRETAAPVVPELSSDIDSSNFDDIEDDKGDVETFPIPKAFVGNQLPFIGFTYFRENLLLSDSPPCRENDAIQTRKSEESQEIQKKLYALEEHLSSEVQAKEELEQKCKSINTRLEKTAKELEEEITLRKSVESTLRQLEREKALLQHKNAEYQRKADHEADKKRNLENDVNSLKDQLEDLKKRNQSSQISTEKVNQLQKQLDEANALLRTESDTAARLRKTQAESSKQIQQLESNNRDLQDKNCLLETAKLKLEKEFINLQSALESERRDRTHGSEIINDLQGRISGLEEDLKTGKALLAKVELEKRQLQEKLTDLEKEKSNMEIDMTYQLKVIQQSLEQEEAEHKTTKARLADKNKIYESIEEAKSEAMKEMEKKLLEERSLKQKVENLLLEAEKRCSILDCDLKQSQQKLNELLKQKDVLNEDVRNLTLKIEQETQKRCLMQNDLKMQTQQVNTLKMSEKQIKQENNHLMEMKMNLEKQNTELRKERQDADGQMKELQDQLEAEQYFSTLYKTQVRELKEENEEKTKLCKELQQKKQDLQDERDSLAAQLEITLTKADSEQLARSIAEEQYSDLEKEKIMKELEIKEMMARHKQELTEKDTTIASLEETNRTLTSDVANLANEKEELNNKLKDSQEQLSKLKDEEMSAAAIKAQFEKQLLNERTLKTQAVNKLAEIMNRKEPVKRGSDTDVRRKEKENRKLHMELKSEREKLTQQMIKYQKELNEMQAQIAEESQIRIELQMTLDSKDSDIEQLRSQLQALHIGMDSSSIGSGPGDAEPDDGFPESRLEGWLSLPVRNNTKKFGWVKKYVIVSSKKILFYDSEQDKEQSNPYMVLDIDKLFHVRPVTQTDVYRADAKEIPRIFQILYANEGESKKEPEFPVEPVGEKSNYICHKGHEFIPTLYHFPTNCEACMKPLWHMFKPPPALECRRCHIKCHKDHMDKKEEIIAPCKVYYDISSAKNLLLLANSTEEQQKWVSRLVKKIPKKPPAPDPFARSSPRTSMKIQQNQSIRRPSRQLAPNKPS
UniProt Q62120: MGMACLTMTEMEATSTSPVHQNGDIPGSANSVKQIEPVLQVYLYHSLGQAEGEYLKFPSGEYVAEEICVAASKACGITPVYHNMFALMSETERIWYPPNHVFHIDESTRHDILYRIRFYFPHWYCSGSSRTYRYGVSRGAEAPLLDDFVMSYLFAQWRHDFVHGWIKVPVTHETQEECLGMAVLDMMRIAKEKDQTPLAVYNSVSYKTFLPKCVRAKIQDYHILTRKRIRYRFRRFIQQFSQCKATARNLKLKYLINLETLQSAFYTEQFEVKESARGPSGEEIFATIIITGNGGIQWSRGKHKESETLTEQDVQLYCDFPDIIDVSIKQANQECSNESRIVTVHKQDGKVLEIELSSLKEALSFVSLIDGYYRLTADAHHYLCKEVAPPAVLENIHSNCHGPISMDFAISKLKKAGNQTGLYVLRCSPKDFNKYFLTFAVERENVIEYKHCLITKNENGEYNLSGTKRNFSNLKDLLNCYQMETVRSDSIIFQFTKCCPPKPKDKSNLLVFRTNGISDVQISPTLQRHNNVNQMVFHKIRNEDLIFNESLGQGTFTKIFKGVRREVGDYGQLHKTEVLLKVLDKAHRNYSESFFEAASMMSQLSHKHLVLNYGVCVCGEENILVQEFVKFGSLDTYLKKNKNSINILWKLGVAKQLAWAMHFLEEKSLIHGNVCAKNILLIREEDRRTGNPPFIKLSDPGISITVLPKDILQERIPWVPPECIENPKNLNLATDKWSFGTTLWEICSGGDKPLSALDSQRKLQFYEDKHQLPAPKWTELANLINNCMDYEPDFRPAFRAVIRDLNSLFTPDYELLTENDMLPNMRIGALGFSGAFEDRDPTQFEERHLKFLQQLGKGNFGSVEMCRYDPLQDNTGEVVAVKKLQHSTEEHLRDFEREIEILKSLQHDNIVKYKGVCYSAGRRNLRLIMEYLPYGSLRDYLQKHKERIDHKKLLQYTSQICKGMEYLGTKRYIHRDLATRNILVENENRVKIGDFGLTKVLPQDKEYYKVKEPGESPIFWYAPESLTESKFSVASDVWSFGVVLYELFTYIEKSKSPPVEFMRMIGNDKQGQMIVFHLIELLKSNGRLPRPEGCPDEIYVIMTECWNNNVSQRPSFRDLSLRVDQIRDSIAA
UniProt P52332: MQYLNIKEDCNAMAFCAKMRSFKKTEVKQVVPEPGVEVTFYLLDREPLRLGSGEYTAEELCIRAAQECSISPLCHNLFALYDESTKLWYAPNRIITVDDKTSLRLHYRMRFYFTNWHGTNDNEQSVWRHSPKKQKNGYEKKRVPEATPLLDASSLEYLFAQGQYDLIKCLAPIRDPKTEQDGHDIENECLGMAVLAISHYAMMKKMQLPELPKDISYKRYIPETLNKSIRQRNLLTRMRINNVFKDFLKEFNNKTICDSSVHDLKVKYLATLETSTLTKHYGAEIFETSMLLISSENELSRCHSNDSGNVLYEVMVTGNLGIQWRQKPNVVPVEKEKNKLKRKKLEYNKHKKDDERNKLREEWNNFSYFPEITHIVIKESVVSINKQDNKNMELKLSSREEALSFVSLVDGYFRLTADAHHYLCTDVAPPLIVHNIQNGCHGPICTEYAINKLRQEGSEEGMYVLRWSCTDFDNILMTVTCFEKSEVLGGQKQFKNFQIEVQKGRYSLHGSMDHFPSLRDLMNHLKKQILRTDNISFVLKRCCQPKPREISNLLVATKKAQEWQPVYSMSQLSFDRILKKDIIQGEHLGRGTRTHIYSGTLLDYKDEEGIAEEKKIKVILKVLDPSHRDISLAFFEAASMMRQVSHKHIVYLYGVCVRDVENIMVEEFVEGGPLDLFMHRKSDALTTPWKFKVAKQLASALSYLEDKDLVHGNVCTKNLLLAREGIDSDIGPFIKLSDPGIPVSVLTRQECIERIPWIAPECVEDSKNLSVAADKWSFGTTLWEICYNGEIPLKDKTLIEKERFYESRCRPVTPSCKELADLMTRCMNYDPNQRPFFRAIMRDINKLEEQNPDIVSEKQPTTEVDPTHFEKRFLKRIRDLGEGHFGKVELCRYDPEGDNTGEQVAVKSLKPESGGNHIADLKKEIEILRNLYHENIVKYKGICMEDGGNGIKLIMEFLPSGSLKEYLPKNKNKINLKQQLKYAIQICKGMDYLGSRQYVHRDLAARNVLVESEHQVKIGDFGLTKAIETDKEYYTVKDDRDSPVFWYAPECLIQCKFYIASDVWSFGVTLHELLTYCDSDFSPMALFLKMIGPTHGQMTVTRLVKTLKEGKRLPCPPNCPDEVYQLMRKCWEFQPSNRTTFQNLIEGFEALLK

Biological target: Myc-tagged Gsk3β (glycogen synthase kinase-3β) (UniProt Q9WV60)
Test: co-IP; lysates of cells co-expressing HA-Jak1/2 and Myc-Gsk3β (C3H10T1/2 by the text, 293 cells by the legend); precipitated with a Gsk3β antibody, IgG1 as control; western blot

binding, binds:
endogenous Rock2 (Rho kinase 2) (from UniProt P70336 1-1388) (enzyme)
HA-tagged Jak2 (Janus kinase 2) (from UniProt Q62120 1-1132) (enzyme)
HA-tagged Jak1 (Janus kinase 1) (from UniProt P52332 1-1153) (enzyme)
